Experimental data published in PubChem BioAssay AID590 (National Center for Advancing Translational Sciences (NCATS), 2007).
Out of some 59,000 compounds screened, about 6,500 (11%) were called active. This list was built around the results that the source calls inconclusive (neither active nor inactive); the mix of calls is not that of the screen. Cut-off read from the data, not from the text of the source: active = max dye-equivalent concentration above about 10 nM; inconclusive = mostly about 1.1 nM to 9.6 nM; inactive = weaker than that.

Assay: qHTS Assay for Spectroscopic Profiling in A350 Spectral Region
Conditions: Compound autofluorescence, 340/450 nm, Alexa 350 dye-equivalents; active compounds read high

Row | SMILES | max dye-equivalent concentration
1 | O=C(COC(=O)C12CC3CC(CC(C3)C1)C2)NCc1ccco1 | active: 16 nM
2 | CCCCC(=O)NCCc1ccc(S(N)(=O)=O)cc1 | active: 13000 nM
3 | CC(=O)C1=C(O)C(=O)N(CCCCCC(=O)O)C1c1ccc(N(C)C)cc1 (centres undefined) | inconclusive: 5.5 nM
4 | CC(=O)c1sc2nc(-c3cccs3)cc(C(F)(F)F)c2c1N | active: 67 nM
5 | Cc1ccc(C(=O)NCC(=O)O)cc1S(=O)(=O)N1CCCCC1 | inactive
6 | O=C(c1cccn2c(=O)c3ccccc3nc12)N1CCN(Cc2ccc3c(c2)OCO3)CC1 | active: 230 nM
7 | COc1ncc2nc(-c3cccs3)c(=O)n(Cc3cccs3)c2n1 | inconclusive: 9.5 nM
8 | O=C(Cc1nc2ccccc2[nH]1)NCc1ccco1 | inconclusive: 4.3 nM
9 | Cc1cc(NS(=O)(=O)c2ccc(NC(=O)CCN3C(=O)c4ccccc4C3=O)cc2)no1 | inconclusive: 1.2 nM
10 | COc1cc(NC(=O)c2ccc(-c3ccc(Br)cc3)o2)ccc1NC(=O)C(C)C | active: 34 nM
11 | Cc1ccccc1-n1c(SCC(=O)NCc2cccs2)nnc1-c1ccncc1 | inconclusive: 1.3 nM
12 | COc1ccc(CN(C2CCCC2)S(=O)(=O)c2ccc(-n3cnnn3)cc2)cc1 | inconclusive: 1.4 nM
13 | COc1cccc(C2CC(c3ccccc3Cl)Nc3ncnn32)c1 (centres undefined) | inactive
14 | CC1CCc2sc3nc(N4CCN(CCO)CC4)n4ncnc4c3c2C1 (centres undefined) | inactive
15 | O=C(C1CCN(S(=O)(=O)c2cccc3cccnc23)CC1)N1CCN(c2ccccn2)CC1 | inactive
16 | Cc1nc2c(ccc3nc(NC(=O)c4ccc5c(c4)OCCO5)sc32)s1 | active: 22 nM
17 | COc1ccc(NC(=O)CS(=O)CC(=O)NCc2cccc(C(F)(F)F)c2)cc1 (centres undefined) | inconclusive: 1.8 nM
18 | COCCCNC(=O)C1CC(=O)N(c2ccc(C)cc2)C1 (centres undefined) | inactive
19 | NCc1nnn(Cc2ccccc2)c1N | active: 13 nM
20 | C=CCNS(=O)(=O)c1cccc2cc(C(=O)O)c(O)cc12 | active: 31 nM
21 | Cc1c(NC(=O)c2cnn3cccnc23)c(=O)n(-c2ccccc2)n1C | inconclusive: 2.7 nM
22 | Cc1ccc(C)c2[nH]c(=O)c(CN(CC3CCCO3)S(=O)(=O)c3ccc4c(c3)OCCO4)cc12 (centres undefined) | inconclusive: 8.2 nM
23 | COc1ccc(C(=O)Nc2ccc(N3CCN(c4ccc(OC)cc4)CC3)c(C#N)c2)cc1 | active: 320 nM

Row | SMILES | max dye-equivalent concentration
24 | CCOC(=O)c1sc(NC(=O)CSc2ncn[nH]2)c(C#N)c1C | inactive
25 | O=C(CCN1C(=O)c2ccccc2C1=O)Nc1ccccn1 | inconclusive: 1.4 nM
26 | CCOc1ccc(CNC23CN4CN(CN(C4)C2)C3)cc1 | inconclusive: 2 nM
27 | COc1cccc(NC(=O)CNC(=O)c2cccs2)c1 | inactive
28 | COCCOC(=O)C1=C(N)OC2=C(C(=O)CC(C)(C)C2)C1c1cccnc1 (centres undefined) | inactive
29 | O=C1N(Cc2ccc3c(c2)OCO3)c2ccccc2C1(O)c1c[nH]c2ccccc12 (centres undefined) | inconclusive: 6.2 nM
30 | CCOC(=O)Cc1c(C)nc2c(C#N)c(C)nn2c1C | active: 11 nM
31 | O=C(O)CSc1nc2ccc(Cl)cc2[nH]1 | inactive
32 | Cn1ccnc1SCC(=O)c1cc2ccccc2o1 | inactive
33 | COc1nc(-c2ccccc2)ccc1-c1noc(COc2ccccc2)n1 | inconclusive: 4.8 nM
34 | O=C1CCCC2=C1C1(CCCCC1)N=C(Nc1nc3ccccc3o1)N2 | inconclusive: 5 nM
35 | CCNc1ncc2nc(-c3ccc(F)cc3)c(=O)n(C[C@H]3CCCO3)c2n1 | active: 330 nM
36 | CC(=O)O[C@@H]1CC[C@]2(C)C(=C[C@@H]([C@@H]3C=C4C[C@@H](OC(C)=O)CC[C@]4(C)C4=C3[C@H]3C[C@@H]5O[C@@]6(CC[C@H](C)CO6)[C@@H](C)[C@@H]5[C@@]3(C)CC4)C3=C2CC[C@@]2(C)[C@H]4[C@@H](C)[C@]5(CC[C@H](C)CO5)O[C@@H]4C[C@H]32)C1 | inactive
37 | S=P(c1ccc(N2CCOCC2)cc1N1CCOCC1)(N1CCOCC1)N1CCOCC1 | inactive
38 | COCCNC(=O)CN(C(=O)CCC(=O)Nc1ccccn1)c1ccc(F)c(Cl)c1 | inconclusive: 1.2 nM
39 | COc1cc2nc(N3CCN(C(=O)C4COc5ccccc5O4)CC3)nc(N)c2cc1OC (centres undefined) | active: 390 nM
40 | O=C(CCCCCn1c(=O)[nH]c2ccsc2c1=O)NCc1cccs1 | inactive
41 | CN(C)c1ccc(-c2ccc3ncnc(NC4CC4)c3c2)cc1 | inconclusive: 1.5 nM
42 | COc1ccccc1CNc1ncncc1-c1ccoc1 | inconclusive: 5.6 nM
43 | O=c1c(O)c(-c2ccc(O)cc2)oc2cc(O)cc(O)c12 | inconclusive: 4.4 nM
44 | CCOc1cc(-c2nc(-c3ccc(C)nc3OC)no2)cc(OCC)c1OCC | inconclusive: 1.6 nM
45 | CCOc1ccccc1C(=O)N(Cc1cccs1)C1CCS(=O)(=O)C1 (centres undefined) | inconclusive: 1.8 nM
46 | CC(=O)c1ccc(N2CCN(C(=O)C3CCC3)CC2)cc1 | inconclusive: 9.9 nM

Row | SMILES | max dye-equivalent concentration
47 | COc1ccc(-c2nc3cnc(OC)nc3n(Cc3cccs3)c2=O)cc1 | active: 24 nM
48 | O=C(Nc1ccc2c(c1)nc1n2CCN(Cc2ccccc2)C1)c1cccs1 | inconclusive: 6.2 nM
49 | Cc1cc(-c2ccccc2)nn1-c1nc2c(c(=O)[nH]c(=O)n2C)n1C | inconclusive: 2.2 nM
50 | CCN1CCN(C(=O)c2cn(CCOC)c(=O)c3c2c2ccccc2n3C)CC1 | active: 690 nM
51 | COc1ccc2[nH]c(=O)c(CN(C(=O)COc3ccccc3)C(C)C)cc2c1 | active: 250 nM
52 | CCC1=[N+]([O-])C(C)(/C(C)=N\O)N(O)C1(C)C (centres undefined) | inconclusive: 7.4 nM
53 | CCOc1ccc(N2C(=O)c3cccnc3C2Nc2ccc(F)cc2)cc1 (centres undefined) | inconclusive: 1.6 nM
54 | CCn1c(SCC(=O)Nc2cccc(OC)c2)nnc1-c1ccc(Cl)cc1 | inconclusive: 1.2 nM
55 | Cn1c(=O)oc2cc(S(=O)(=O)N3CCN(C(=O)c4ccco4)CC3)ccc21 | inconclusive: 5.2 nM
56 | COCCn1c(=O)[nH]c2cc(C(=O)NCCc3ccc(OC)c(OC)c3)ccc2c1=O | inconclusive: 1.2 nM
57 | Cc1ccc2nc(NCCO)nc(-c3ccccc3)c2c1 | active: 590 nM
58 | CC1(C)CC(=O)C2=C(C1)OC(c1ccncc1)C(C#N)=C2N (centres undefined) | active: 10 nM
59 | O=C(c1cc2ccccn2n1)N1CCN(c2cccc(C(F)(F)F)c2)CC1 | inconclusive: 1.1 nM
60 | Cc1cc(=O)oc(C)c1C(=O)NCc1ccc(F)cc1 | inconclusive: 3.3 nM
61 | CC(=O)c1cc(F)c(N2CCN(C(=O)Cc3ccccc3)CC2)cc1C | inactive
62 | Cn1c(Cl)cnc1C(O)c1ccccc1 (centres undefined) | inconclusive: 4.4 nM
63 | CCOc1ccc(Cc2nn[nH]n2)cc1 | inactive
64 | CCCN(CCC)c1nc2ccccc2nc1C(C#N)C(=O)OCCOC (centres undefined) | active: 86 nM
65 | Cc1cnc(NC(=O)c2ccco2)s1 | inconclusive: 3.6 nM
66 | CC1(C)NC(=O)N(CC(O)COc2ccc(-c3ccccc3)cc2)C1=O (centres undefined) | inactive
67 | COc1ccc(S(=O)(=O)N2CCCC2C(=O)Nc2nnc(-c3cccnc3)s2)cc1 (centres undefined) | inconclusive: 2 nM
68 | Cc1cc2nnc(SC(C)C#N)n2c2ccccc12 (centres undefined) | inconclusive: 3.1 nM
69 | O=C(CSc1nc2cc(S(=O)(=O)N3CCOCC3)ccc2o1)NC1CCCc2ccccc21 (centres undefined) | inactive

Shown with tabs: part of the list above.
Row	SMILES	max dye-equivalent concentration
54	CCn1c(SCC(=O)Nc2cccc(OC)c2)nnc1-c1ccc(Cl)cc1	inconclusive: 1.2 nM
55	Cn1c(=O)oc2cc(S(=O)(=O)N3CCN(C(=O)c4ccco4)CC3)ccc21	inconclusive: 5.2 nM
56	COCCn1c(=O)[nH]c2cc(C(=O)NCCc3ccc(OC)c(OC)c3)ccc2c1=O	inconclusive: 1.2 nM

(next part)

Row | SMILES | max dye-equivalent concentration
70 | Cc1cc(C)n(CCc2nc3c4ccccc4n(CC(=O)Nc4ccc(Cl)cc4F)c(=O)n3n2)n1 | inactive
71 | CCOC(=O)c1ccc(NC(=O)Cn2nnc(-c3ccccc3C)n2)cc1 | inconclusive: 8.2 nM
72 | COc1ccc(-c2nc3cnc(N4CCN(C)CC4)nc3n(C)c2=O)cc1 | inconclusive: 5.2 nM
73 | O=[N+]([O-])c1ccc(Cl)c(CNc2ncnc3c2ncn3[C@@H]2CCCCO2)c1 | inconclusive: 5.4 nM
74 | COc1ccc(OC)c(N2C(=O)CC(Cc3ccc(C)cc3)C2=O)c1 (centres undefined) | inactive
75 | COC(=O)c1ccc(C(=O)OC)nc1 | inconclusive: 4.6 nM
76 | CCOc1ccc(C2C(C#N)=C(N)Oc3nc[nH]c(=O)c32)cc1OC (centres undefined) | inconclusive: 5.5 nM
77 | COc1cccc(N2CCN(c3ncnc4c3[nH]c3ccc(F)cc34)CC2C)c1 (centres undefined) | inconclusive: 2 nM
78 | CCOC(=O)NC1(Nc2ccc(Cl)cn2)Oc2ccccc2O1 | inconclusive: 2.7 nM
79 | CCCc1nnc(NC(=O)c2cc(OC)cc(OC)c2)s1 | inconclusive: 1.3 nM
80 | O=S(=O)(Nc1ncn[nH]1)c1ccc2ccccc2c1 | inactive
81 | CC(C)Nc1oc(Cc2cccc3ccccc23)nc1C#N | inconclusive: 1.7 nM
82 | Nn1c(SCC(=O)Nc2ccc3c(c2)OCO3)nnc1C1CCCCC1 | inconclusive: 1.1 nM
83 | CCC(c1nnnn1C1CCCC1)N(Cc1cccs1)Cc1cc2cccc(C)c2[nH]c1=O (centres undefined) | inactive
84 | O=S(=O)(c1ccc(N2CCOCC2)cc1)N1CCOCC1 | inactive
85 | CSCCC(C(=O)Nc1ccc2c(c1)OCO2)N1C(=O)c2ccccc2C1=O (centres undefined) | inactive
86 | Cn1c(NCc2ccco2)nc2c1c(=O)n(Cc1ccc(Cl)c(Cl)c1)c(=O)n2C | inactive
87 | CC(C)Oc1ccc(-c2nn(-c3ccccc3)cc2/C=c2\sc3ncnn3c2=O)cc1 | inconclusive: 1.5 nM
88 | Cc1noc(C)c1CSc1nc2ccccc2c(=O)n1-c1ccc(F)cc1F | inactive
89 | O=C1C=C(NCCc2cc(Br)c(O)c(Br)c2)C(=O)c2ncccc21 | inactive
